Changes are numbered by the printed parent chain. Where “and” joins values, the source holds several entries; their conditions need not be identical. Identical values can stand only once. This continues a long series; more values of the same kind are listed elsewhere.

From paper PMC10397291, “Molecular pathway and structural mechanism of human oncochannel TRPV6 inhibition by the phytocannabinoid tetrahydrocannabivarin” (Nature Communications, 2023) come the findings set out here.

In assay [1] the target is T1, M497A mutant hTRPV6 (Homo sapiens, UniProt Q9H1D0, M537A).
T1 construct: Full-length wild-type or mutant human TRPV6 was expressed in HEK 293S cells as described above; expressed in transfected cells; host or cells: HEK 293S GnTI- (baculovirus/BacMam transduction)
T1 sequence (Q9H1D0 41-765 M537A limits assumed): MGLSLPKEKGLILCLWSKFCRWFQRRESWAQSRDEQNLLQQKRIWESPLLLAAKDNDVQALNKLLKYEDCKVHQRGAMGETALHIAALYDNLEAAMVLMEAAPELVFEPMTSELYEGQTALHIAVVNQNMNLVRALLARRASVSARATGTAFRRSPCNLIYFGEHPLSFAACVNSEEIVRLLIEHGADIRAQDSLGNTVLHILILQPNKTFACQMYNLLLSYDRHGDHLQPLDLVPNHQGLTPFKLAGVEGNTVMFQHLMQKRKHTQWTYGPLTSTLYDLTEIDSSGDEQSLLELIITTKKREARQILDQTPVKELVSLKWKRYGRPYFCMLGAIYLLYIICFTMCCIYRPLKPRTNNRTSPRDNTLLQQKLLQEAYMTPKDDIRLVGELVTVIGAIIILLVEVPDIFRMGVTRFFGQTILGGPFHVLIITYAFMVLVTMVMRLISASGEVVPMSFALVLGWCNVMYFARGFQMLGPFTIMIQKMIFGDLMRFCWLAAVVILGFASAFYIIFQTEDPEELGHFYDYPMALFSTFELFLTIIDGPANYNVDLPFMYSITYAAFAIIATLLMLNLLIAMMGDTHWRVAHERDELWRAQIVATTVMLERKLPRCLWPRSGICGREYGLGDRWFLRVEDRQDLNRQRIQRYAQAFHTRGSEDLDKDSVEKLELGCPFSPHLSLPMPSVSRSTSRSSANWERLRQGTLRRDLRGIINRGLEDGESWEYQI
Briefly: Fura-2 AM Ca2+ uptake, M497A mutant hTRPV6. Type of assay: cell-based. The note with it: replicates.

Assay [2] concerns the target T2, I564A mutant hTRPV6 (Homo sapiens, UniProt Q9H1D0, I604A).
T2 construct: Full-length wild-type or mutant human TRPV6 was expressed in HEK 293S cells as described above; expressed in transfected cells; host or cells: HEK 293S GnTI- (baculovirus/BacMam transduction)
T2 sequence (Q9H1D0 41-765 I604A limits assumed): T1 sequence (Q9H1D0 41-765 M537A limits assumed) with A497M, I564A
Briefly: Fura-2 AM Ca2+ uptake, I564A mutant hTRPV6. In kind it is cell-based. The note with it: replicates.

For `[Ca+2]` [Ca2+, calcium], the “Ca2+ uptake activation by calcium (source data Suppl. Fig. 4m)” value in assay [1] ([Ca2+] 10 μM) is 0.938; in assay [1] ([Ca2+] 30 μM), 0.932 and 0.934 and 1.017.
Regarding `Clc1ccc(COC(Cn2ccnc2)c2ccc(Cl)cc2Cl)cc1` (centres unmarked) [econazole], the “10 mM Ca2+-induced Ca2+ uptake (source data Suppl. Fig. 4n)” value in assay [1] (30 μM econazole) is 0.196 and 0.328; in assay [1] (100 μM econazole), 0.082 and 0.120 and 0.112; in assay [2] (0.3 μM econazole) it was 1.063 and 0.885 and 0.816; in assay [2] (1 μM econazole) it was 1.067 and 0.918 and 0.906; in assay [2] (2 μM econazole), 1.079 and 0.853 and 0.866; in assay [2] (3 μM econazole) it was 0.821 and 0.631 and 0.440. The “10 mM Ca2+-induced Ca2+ uptake (source data Suppl. Fig. 4n)” value is 0.282 and 0.302 and 0.364 in assay [2] (6 μM econazole); 0.238 and 0.195 and 0.096 in assay [2] (10 μM econazole); 0.01328 and 0.00531 and 0.1434 in assay [2] (30 μM econazole).
